Experimental data as given in the supplement of paper PMC10849652.
The other results are listed elsewhere or left out.

By UniProt entry, the sequences of proteins in these tests, tags left out. Where a name states a change or a piece, a line headed by the entry shows the natural chain unless it says otherwise.
UniProt P60604: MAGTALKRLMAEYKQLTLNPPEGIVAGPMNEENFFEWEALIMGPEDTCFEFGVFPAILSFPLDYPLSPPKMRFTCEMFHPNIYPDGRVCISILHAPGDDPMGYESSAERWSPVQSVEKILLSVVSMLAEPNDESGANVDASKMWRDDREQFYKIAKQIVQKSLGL
UniProt Q9NNX1: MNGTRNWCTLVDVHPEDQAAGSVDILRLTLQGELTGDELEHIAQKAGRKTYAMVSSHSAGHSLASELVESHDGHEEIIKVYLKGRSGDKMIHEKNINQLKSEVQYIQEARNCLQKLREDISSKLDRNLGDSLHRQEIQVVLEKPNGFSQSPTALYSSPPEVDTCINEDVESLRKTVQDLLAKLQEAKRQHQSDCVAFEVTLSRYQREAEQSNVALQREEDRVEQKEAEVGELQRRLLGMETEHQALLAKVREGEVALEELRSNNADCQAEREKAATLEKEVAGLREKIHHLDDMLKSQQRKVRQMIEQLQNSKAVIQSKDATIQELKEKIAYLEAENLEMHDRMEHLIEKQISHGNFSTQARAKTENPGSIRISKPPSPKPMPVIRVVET
UniProt Q9P2K2: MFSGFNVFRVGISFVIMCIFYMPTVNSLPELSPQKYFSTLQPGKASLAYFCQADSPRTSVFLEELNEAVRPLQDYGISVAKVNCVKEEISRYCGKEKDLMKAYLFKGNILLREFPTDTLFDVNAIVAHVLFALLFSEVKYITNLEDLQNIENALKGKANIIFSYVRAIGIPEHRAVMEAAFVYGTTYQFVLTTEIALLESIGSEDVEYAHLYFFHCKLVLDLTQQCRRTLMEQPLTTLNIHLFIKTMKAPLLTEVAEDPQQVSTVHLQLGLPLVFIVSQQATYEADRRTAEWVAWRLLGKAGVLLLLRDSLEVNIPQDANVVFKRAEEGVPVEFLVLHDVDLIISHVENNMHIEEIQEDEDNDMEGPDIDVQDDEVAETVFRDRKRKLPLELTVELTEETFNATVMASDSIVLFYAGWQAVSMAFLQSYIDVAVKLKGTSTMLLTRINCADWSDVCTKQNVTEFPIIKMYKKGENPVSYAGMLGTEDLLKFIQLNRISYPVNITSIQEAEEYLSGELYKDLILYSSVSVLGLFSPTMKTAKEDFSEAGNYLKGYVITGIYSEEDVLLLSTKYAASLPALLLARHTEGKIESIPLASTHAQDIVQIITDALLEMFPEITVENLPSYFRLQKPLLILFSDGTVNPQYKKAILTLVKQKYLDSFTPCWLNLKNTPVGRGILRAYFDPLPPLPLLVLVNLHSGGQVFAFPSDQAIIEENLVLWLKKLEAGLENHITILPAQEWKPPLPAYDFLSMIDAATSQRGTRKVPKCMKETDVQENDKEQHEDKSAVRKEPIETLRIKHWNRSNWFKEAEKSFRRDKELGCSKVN
UniProt Q86VQ6, whole entry, looked up: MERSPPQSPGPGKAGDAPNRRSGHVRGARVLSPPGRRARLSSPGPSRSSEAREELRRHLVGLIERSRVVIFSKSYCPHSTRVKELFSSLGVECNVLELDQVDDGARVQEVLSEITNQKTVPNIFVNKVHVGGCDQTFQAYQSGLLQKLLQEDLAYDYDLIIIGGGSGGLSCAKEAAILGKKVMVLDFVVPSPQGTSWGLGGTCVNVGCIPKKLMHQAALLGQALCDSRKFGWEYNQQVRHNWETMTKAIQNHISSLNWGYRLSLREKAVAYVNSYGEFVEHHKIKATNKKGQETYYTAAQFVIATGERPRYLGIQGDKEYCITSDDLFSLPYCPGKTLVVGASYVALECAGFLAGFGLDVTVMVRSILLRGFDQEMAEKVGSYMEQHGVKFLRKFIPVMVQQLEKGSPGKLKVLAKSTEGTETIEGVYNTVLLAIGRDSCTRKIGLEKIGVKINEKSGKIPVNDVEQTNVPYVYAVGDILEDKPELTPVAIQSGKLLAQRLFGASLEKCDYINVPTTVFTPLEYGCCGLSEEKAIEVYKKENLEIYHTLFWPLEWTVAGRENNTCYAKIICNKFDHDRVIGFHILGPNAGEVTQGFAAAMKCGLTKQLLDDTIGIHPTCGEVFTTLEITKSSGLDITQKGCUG
UniProt A2RUC4: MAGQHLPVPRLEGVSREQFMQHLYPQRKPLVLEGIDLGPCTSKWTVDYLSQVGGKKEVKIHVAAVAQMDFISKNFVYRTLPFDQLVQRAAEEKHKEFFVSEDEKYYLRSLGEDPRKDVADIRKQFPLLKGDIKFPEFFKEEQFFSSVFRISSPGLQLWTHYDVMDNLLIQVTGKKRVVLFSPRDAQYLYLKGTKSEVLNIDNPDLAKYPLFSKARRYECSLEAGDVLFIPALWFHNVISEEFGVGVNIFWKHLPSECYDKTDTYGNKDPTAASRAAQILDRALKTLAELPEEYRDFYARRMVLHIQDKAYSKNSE
UniProt O00124: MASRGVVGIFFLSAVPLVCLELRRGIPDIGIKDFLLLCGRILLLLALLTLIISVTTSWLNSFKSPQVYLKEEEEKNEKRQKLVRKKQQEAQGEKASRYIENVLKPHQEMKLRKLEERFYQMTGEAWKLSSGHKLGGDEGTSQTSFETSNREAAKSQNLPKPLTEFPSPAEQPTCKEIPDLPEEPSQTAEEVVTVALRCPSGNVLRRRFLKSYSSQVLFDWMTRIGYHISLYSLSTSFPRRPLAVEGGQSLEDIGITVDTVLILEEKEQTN
UniProt O75896: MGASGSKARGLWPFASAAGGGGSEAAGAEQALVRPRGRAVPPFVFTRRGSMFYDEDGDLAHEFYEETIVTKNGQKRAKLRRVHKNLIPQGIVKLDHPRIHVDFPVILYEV
UniProt Q9NPG3, whole entry, looked up: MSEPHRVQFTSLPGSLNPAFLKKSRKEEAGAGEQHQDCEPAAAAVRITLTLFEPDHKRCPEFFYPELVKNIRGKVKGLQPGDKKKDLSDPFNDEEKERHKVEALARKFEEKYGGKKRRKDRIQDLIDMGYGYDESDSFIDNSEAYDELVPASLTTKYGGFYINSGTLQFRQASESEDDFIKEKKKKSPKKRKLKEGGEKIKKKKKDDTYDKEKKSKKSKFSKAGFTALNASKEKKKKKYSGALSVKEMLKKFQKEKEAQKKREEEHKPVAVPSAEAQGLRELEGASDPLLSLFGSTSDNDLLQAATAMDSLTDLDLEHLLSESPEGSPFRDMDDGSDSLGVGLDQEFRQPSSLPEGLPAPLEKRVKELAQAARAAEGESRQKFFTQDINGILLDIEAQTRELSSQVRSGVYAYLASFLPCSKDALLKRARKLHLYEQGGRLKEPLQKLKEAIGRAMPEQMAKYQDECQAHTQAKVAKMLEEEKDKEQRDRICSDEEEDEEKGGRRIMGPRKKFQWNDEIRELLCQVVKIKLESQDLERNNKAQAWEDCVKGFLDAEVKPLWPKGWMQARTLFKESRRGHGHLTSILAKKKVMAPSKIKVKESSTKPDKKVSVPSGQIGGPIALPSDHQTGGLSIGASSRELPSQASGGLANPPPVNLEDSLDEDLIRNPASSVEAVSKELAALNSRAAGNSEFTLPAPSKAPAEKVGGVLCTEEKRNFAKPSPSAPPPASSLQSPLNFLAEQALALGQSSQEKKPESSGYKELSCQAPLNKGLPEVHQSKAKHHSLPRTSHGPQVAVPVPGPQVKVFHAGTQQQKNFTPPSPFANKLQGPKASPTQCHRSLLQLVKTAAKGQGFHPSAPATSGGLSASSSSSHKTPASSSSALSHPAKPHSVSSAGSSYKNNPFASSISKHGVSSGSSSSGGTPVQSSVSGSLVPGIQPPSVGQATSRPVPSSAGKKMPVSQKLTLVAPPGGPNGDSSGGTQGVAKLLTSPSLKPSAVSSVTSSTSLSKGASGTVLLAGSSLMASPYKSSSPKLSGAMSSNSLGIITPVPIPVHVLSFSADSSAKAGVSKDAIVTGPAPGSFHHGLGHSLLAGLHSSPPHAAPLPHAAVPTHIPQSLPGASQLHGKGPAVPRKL
UniProt Q6ZU65, whole entry, looked up: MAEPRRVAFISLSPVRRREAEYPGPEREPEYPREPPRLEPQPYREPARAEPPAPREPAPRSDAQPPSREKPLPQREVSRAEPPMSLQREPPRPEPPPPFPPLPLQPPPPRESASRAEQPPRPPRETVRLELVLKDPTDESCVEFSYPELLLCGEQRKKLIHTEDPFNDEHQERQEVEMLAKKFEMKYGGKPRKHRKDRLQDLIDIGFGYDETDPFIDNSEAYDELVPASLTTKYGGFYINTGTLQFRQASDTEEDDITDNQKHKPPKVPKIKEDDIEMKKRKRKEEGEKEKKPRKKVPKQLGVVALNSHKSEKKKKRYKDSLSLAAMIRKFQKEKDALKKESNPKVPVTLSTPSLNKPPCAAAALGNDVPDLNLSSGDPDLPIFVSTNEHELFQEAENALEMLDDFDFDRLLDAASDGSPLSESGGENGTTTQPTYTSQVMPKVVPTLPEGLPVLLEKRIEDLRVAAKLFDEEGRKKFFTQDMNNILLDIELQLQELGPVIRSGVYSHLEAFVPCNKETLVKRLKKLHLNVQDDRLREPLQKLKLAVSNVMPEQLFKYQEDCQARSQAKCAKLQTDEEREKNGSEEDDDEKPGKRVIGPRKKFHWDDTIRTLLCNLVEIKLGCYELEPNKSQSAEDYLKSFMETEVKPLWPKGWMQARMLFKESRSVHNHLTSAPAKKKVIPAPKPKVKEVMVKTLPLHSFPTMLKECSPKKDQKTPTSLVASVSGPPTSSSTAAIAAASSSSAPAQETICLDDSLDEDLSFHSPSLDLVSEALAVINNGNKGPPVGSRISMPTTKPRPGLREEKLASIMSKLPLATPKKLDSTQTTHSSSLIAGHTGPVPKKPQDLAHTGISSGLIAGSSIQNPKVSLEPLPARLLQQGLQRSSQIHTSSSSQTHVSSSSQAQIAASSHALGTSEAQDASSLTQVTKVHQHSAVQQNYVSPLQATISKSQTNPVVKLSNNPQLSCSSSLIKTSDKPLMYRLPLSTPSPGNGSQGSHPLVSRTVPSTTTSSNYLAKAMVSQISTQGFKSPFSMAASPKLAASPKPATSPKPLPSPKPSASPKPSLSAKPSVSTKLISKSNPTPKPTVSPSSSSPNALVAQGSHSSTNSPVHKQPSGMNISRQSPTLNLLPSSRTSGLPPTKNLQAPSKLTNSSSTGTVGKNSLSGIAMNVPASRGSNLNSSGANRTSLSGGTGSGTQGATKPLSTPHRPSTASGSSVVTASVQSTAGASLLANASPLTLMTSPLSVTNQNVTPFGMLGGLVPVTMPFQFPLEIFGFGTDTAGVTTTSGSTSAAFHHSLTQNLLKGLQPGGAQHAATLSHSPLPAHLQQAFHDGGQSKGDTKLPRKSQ
UniProt Q9NY65, whole entry, looked up: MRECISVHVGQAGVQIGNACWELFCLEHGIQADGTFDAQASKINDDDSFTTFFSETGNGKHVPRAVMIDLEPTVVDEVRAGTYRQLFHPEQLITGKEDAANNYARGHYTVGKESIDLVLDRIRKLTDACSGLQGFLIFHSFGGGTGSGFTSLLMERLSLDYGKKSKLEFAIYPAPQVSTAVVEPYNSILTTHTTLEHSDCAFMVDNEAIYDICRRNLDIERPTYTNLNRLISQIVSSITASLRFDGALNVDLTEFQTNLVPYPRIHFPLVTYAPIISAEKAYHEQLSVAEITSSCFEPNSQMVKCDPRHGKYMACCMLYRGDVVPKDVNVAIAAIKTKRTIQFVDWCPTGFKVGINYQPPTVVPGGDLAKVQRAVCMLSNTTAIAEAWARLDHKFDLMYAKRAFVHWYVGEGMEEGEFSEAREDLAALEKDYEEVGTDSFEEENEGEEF

Assays:
Experiment in all cases: log2 fold change, soluble protein after heating vs DMSO (PISA); higher = thermal stabilisation; K562 lysate, 10 uM; active = over 0.2 and 3.5 SD of the protein, either way, in both replicates (recomputed)
[1] = compound: CC1=C2C(=CC=C1)N=C(N(C2=O)C3=CC=CC=C3C)CN4C=NC5=C(N=CN=C54)N
Method in brief: (§1)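 Following dounce homogenisation of K562 pellets in PBS pH 7.4 with 1 mM MgCl2, crude extract at 1 mg/mL protein was incubated for 30 min with 10 μM compound. Aliquots were then heated for 3 min over 48°C-58°C and pooled, NP-40 was added to 0.5% at 4°C, and soluble protein was recovered as the supernatant at 21,000xg for 90 min. Channel-sum-equalised TMTpro 16plex LC-MS/MS quantified this protein. Each value, from duplicates, is a log-two fold change in thermal stability relative to solvent controls.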

[2] = compound: Cc1sc2c(c1C)C(c1ccc(Cl)cc1)=N[C@@H](CC(=O)OC(C)(C)C)c1nnc(C)n1-2
Method in brief: as §1

[3] = compound: c1ccc([C@@H]2C[C@H]2NC2CCNCC2)cc1
Method in brief: as §1

[4] = compound: C1=CC=C(C=C1)[C@H](COC2=CC3=C(C=C2)NC(=O)N3)NC(=O)C4=CC=CN(C4=O)CC5=CC(=C(C=C5)F)F
Method in brief: as §1

[5] = compound: CC1=C(SC2=C1C(=N[C@H](C3=NN=C(N32)C)CC(=O)N)C4=CC=C(C=C4)Cl)C
Method in brief: as §1

Measured: log2 fold change

UBE2G2 (UniProt P60604)
inactive: [1] 0.024 | [2] 0.127 | [3] -0.137

TUFT1 (UniProt Q9NNX1)
inactive: [4] 0.093 | [5] -0.04 | [3] -0.119

TXNDC16 (UniProt Q9P2K2)
inactive: [1] 0 | [2] -0.029 | [3] 0.037

TXNRD3 (UniProt Q86VQ6)
inactive: [4] -0.069 | [5] 0.086 | [3] 0.081

TYW5 (UniProt A2RUC4)
inactive: [4] 0.011 | [5] -0.19 | [3] 0.034

UBXN8 (UniProt O00124)
inactive: [2] -0.117 | [3] -0.087

TUSC2 (UniProt O75896)
inactive: [4] 0.137 | [5] 0.049 | [2] -0.036 | [3] 0

Reprinted at random: 2 entries already listed.
TUSC2 (UniProt O75896)
inactive: [4] 0.137 | [5] 0.049 | [2] -0.036 | [3] 0

TXNRD3 (UniProt Q86VQ6)
inactive: [4] -0.069 | [5] 0.086 | [3] 0.081

Additional results follow:

UBN1 (UniProt Q9NPG3)
inactive: [1] 0.03 | [2] -0.164 | [3] 0.085

UBN2 (UniProt Q6ZU65)
inactive: [1] 0.041 | [2] -0.03

TUBA8 (UniProt Q9NY65)
inactive: [4] -0.104 | [5] -0.013 | [2] -0.363 | [3] -0.159

UBA52 (UniProt P62987)
inactive: [4] 0.143 | [5] -0.054 | [3] -0.066
